Taken from: PubChem BioAssay AID1671195 (Yale University, 2021)

- Test: 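Knockdowns that increase or decrease uptake of fluorescent LDL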 (primary screen)
- Cells: human Huh7 hepatoma cells
- Knock-down reagent: siRNA pool against human genes, 18 nM
- Time to read-out: about 2 to 2.5 days of knockdown, then 8 h LDL uptake
- Challenge: DiI-labelled LDL at 30 µg/ml for 8 h, in lipoprotein-deficient serum medium
- Detection: 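Per-cell DiI-LDL intensity by automated imaging; well means scaled to the plate median and given as a robust z-score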
- Reading the numbers: robust z-score: higher = more LDL uptake after knockdown
- Call rule: 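Active when two or more replicates show a robust z-score above 2 or below -2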
The deposit covers about 22,000 reagents; shown is a random part of them. In the full data, about 1,510 (6.9%) are marked active. 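Active includes knockdowns raising or lowering LDL uptake; positive z-scores mean more uptake, negative mean less.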

gene symbol | PubChem SID | robust z-score, replicate 1 | robust z-score, replicate 2 | robust z-score, replicate 3 | activity call
LOC388298 (retired record) | SID442902214 | -0.982 | -1.02 | -1.1 | inactive
RNF185 | SID442898987 | -0.602 | -0.659 | -0.427 | inactive
RHOB | SID442891613 | -0.798 | 1.37 | 0.224 | inactive
GJA8 | SID442897589 | -0.193 | -0.706 | -0.308 | inactive
LINC01342 | SID442893914 | 0.0823 | 0.0608 | -0.152 | inactive
SULF2 | SID442883734 | 2.69 | 1.86 | 2.62 | active
NME3 | SID442887542 | 0.0133 | 1.81 | 0.849 | inactive
HDX | SID442892296 | -0.283 | -0.395 | 1.23 | inactive
THAP11 | SID442883901 | 2.4 | 2 | 2.13 | active
KLHL17 | SID442885623 | 1.44 | 1.68 | 1.19 | inactive
TET3 | SID442889417 | 1.31 | 0.146 | 0.235 | inactive
NEURL1B | SID442886126 | 1.58 | 1.22 | 0.978 | inactive
CACNG1 | SID442893540 | 0.259 | -0.126 | -0.0177 | inactive
TASP1 | SID442885494 | 1.6 | 1.22 | 1.65 | inactive
USF1 | SID442894059 | 0.0309 | 0.0621 | -0.159 | inactive
KIAA0040 | SID442891829 | -0.567 | 0.0104 | 1.28 | inactive
TRIT1 | SID442896736 | -0.381 | -0.0955 | -0.444 | inactive
LRP10 | SID442895138 | -0.184 | 0.133 | -0.364 | inactive
CDH5 | SID442896012 | -1.16 | -0.346 | 0.816 | inactive
RPS11 | SID442901338 | -1.1 | -1.85 | 0.303 | inactive
RBP2 | SID442887183 | 0.924 | 1.16 | 0.816 | inactive
LINC01600 | SID442900974 | -0.829 | -0.549 | -1.12 | inactive
EVI5L | SID442889284 | 0.736 | 0.325 | 0.691 | inactive
PTGER3 | SID442903525 | -1.29 | -0.991 | -1.67 | inactive
COL8A2 | SID442883388 | 2.42 | 3.71 | 3.02 | active
METTL27 | SID442884297 | -1.87 | -2.11 | -1.6 | active
PROM1 | SID442897715 | -0.205 | 0.44 | -1.48 | inactive
HIF3A | SID442889644 | 1.17 | 0.785 | -0.369 | inactive

4 entries from above in another layout:
gene symbol,PubChem SID,"robust z-score, replicate 1","robust z-score, replicate 2","robust z-score, replicate 3",activity call
EVI5L,SID442889284,0.736,0.325,0.691,inactive
PTGER3,SID442903525,-1.29,-0.991,-1.67,inactive
COL8A2,SID442883388,2.42,3.71,3.02,active
METTL27,SID442884297,-1.87,-2.11,-1.6,active
